The target in this assay is T1, ZAR1-FLAG (mouse) (UniProt Q80SU3).
T1 sequence: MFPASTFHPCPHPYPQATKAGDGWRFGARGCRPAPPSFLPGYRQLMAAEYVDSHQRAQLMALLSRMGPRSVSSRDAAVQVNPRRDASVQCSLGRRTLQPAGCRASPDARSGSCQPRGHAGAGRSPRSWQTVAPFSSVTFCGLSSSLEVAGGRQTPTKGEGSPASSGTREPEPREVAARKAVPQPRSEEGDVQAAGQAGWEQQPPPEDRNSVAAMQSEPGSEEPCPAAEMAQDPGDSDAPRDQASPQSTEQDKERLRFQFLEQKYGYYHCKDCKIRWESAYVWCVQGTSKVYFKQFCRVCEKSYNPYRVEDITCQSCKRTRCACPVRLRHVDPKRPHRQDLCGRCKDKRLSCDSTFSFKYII
Briefly: co-IP; HeLa cells co-transfected, 36 h; NP40 lysis buffer with protease inhibitors; FLAG-beads or HA-beads, 4 °C, 2 h; four washes with lysis buffer; blots with anti-FLAG or anti-HA.

Amino acid sequences for entries named in this document (tags omitted). A change or cut given only in a name is not applied to a line headed by its entry.
UniProt P59280: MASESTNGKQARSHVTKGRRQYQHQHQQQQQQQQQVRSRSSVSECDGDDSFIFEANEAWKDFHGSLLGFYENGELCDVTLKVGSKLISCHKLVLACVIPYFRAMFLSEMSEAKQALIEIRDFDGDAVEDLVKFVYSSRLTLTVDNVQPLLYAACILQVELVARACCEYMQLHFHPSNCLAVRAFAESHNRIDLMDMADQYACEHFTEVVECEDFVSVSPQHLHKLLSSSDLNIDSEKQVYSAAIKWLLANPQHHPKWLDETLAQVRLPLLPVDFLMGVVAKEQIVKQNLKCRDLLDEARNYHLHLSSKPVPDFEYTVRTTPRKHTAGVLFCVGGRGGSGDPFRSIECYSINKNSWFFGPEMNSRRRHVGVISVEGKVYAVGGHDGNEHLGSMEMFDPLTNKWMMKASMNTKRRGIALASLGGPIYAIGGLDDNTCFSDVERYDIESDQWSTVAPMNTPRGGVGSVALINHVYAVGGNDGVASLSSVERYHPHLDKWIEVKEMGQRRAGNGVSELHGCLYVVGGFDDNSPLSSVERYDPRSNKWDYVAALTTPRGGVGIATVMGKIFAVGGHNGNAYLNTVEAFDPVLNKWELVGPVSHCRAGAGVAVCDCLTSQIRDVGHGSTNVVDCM

No constants are given. Whether binding was seen depends on the method and setting. Binding seen in cells or lysates may run through a third protein. Binding can be weak; no strength is given. Tags and fused reporters may be left off the sequences shown.

On to “KLHL8 BTB domain truncation (from UniProt P59280)”, for which the binding entry was “binds”.

For the origin of these results see publication PMC12420792.
